From patent US20040018193A1 (priority 2002, published 2004)
Some entries share one result that the patent states for a list of compounds.

Tested on: Bacillus anthracis Sterne strain
Design: species or system DBA/2 mice
Settings: mouse, in vivo

**Q.** `O=C(O)c1cn(C2CC2)c2cc(N3CCNCC3)c(F)cc2c1=O` [ciprofloxacin] was tested. Which “protection of mice from bacterial infection” value did it give?
**A.** ≤ 50%
